# PMC10739246 (ACS Bio & Med Chem Au, 2023)
# Assay: MTT cytotoxicity assay
# Details: human
compound,measurement,value
CN[C@@H]1C[C@H]2O[C@@](C)([C@@H]1OC)n1c3ccccc3c3c4c(c5c6ccccc6n2c5c31)C(=O)NC4 [staurosporine],IC50 at 24 h,19.5 ± 0.97 µM
